This is one part of the list.
Columns and labels:
Test in all cases: log2 fold change, soluble protein after heating vs DMSO (PISA); higher = thermal stabilisation; K562 lysate, 10 uM; active = over 0.2 and 3.5 SD of the protein, either way, in both replicates (recomputed)
lapatinib = compound: CS(=O)(=O)CCNCc1ccc(-c2ccc3ncnc(Nc4ccc(OCc5cccc(F)c5)c(Cl)c4)c3c2)o1 [lapatinib]
Summary of the method: (§1)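 Following dounce homogenisation of K562 pellets in PBS pH 7.4 with 1 mM MgCl2, crude extract at 1 mg/mL protein was incubated for 30 min with 10 μM compound. Aliquots were then heated for 3 min over 48°C-58°C and pooled, NP-40 was added to 0.5% at 4°C, and soluble protein was recovered as the supernatant at 21,000xg for 90 min. Channel-sum-equalised TMTpro 16plex LC-MS/MS quantified this protein. Each value, from duplicates, is a log-two fold change in thermal stability relative to solvent controls.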

The chains behind the UniProt entries cited, without tags or fusion partners. Where a name states a change or a piece, a line headed by the entry shows the natural chain unless it says otherwise.
UniProt Q5THJ4: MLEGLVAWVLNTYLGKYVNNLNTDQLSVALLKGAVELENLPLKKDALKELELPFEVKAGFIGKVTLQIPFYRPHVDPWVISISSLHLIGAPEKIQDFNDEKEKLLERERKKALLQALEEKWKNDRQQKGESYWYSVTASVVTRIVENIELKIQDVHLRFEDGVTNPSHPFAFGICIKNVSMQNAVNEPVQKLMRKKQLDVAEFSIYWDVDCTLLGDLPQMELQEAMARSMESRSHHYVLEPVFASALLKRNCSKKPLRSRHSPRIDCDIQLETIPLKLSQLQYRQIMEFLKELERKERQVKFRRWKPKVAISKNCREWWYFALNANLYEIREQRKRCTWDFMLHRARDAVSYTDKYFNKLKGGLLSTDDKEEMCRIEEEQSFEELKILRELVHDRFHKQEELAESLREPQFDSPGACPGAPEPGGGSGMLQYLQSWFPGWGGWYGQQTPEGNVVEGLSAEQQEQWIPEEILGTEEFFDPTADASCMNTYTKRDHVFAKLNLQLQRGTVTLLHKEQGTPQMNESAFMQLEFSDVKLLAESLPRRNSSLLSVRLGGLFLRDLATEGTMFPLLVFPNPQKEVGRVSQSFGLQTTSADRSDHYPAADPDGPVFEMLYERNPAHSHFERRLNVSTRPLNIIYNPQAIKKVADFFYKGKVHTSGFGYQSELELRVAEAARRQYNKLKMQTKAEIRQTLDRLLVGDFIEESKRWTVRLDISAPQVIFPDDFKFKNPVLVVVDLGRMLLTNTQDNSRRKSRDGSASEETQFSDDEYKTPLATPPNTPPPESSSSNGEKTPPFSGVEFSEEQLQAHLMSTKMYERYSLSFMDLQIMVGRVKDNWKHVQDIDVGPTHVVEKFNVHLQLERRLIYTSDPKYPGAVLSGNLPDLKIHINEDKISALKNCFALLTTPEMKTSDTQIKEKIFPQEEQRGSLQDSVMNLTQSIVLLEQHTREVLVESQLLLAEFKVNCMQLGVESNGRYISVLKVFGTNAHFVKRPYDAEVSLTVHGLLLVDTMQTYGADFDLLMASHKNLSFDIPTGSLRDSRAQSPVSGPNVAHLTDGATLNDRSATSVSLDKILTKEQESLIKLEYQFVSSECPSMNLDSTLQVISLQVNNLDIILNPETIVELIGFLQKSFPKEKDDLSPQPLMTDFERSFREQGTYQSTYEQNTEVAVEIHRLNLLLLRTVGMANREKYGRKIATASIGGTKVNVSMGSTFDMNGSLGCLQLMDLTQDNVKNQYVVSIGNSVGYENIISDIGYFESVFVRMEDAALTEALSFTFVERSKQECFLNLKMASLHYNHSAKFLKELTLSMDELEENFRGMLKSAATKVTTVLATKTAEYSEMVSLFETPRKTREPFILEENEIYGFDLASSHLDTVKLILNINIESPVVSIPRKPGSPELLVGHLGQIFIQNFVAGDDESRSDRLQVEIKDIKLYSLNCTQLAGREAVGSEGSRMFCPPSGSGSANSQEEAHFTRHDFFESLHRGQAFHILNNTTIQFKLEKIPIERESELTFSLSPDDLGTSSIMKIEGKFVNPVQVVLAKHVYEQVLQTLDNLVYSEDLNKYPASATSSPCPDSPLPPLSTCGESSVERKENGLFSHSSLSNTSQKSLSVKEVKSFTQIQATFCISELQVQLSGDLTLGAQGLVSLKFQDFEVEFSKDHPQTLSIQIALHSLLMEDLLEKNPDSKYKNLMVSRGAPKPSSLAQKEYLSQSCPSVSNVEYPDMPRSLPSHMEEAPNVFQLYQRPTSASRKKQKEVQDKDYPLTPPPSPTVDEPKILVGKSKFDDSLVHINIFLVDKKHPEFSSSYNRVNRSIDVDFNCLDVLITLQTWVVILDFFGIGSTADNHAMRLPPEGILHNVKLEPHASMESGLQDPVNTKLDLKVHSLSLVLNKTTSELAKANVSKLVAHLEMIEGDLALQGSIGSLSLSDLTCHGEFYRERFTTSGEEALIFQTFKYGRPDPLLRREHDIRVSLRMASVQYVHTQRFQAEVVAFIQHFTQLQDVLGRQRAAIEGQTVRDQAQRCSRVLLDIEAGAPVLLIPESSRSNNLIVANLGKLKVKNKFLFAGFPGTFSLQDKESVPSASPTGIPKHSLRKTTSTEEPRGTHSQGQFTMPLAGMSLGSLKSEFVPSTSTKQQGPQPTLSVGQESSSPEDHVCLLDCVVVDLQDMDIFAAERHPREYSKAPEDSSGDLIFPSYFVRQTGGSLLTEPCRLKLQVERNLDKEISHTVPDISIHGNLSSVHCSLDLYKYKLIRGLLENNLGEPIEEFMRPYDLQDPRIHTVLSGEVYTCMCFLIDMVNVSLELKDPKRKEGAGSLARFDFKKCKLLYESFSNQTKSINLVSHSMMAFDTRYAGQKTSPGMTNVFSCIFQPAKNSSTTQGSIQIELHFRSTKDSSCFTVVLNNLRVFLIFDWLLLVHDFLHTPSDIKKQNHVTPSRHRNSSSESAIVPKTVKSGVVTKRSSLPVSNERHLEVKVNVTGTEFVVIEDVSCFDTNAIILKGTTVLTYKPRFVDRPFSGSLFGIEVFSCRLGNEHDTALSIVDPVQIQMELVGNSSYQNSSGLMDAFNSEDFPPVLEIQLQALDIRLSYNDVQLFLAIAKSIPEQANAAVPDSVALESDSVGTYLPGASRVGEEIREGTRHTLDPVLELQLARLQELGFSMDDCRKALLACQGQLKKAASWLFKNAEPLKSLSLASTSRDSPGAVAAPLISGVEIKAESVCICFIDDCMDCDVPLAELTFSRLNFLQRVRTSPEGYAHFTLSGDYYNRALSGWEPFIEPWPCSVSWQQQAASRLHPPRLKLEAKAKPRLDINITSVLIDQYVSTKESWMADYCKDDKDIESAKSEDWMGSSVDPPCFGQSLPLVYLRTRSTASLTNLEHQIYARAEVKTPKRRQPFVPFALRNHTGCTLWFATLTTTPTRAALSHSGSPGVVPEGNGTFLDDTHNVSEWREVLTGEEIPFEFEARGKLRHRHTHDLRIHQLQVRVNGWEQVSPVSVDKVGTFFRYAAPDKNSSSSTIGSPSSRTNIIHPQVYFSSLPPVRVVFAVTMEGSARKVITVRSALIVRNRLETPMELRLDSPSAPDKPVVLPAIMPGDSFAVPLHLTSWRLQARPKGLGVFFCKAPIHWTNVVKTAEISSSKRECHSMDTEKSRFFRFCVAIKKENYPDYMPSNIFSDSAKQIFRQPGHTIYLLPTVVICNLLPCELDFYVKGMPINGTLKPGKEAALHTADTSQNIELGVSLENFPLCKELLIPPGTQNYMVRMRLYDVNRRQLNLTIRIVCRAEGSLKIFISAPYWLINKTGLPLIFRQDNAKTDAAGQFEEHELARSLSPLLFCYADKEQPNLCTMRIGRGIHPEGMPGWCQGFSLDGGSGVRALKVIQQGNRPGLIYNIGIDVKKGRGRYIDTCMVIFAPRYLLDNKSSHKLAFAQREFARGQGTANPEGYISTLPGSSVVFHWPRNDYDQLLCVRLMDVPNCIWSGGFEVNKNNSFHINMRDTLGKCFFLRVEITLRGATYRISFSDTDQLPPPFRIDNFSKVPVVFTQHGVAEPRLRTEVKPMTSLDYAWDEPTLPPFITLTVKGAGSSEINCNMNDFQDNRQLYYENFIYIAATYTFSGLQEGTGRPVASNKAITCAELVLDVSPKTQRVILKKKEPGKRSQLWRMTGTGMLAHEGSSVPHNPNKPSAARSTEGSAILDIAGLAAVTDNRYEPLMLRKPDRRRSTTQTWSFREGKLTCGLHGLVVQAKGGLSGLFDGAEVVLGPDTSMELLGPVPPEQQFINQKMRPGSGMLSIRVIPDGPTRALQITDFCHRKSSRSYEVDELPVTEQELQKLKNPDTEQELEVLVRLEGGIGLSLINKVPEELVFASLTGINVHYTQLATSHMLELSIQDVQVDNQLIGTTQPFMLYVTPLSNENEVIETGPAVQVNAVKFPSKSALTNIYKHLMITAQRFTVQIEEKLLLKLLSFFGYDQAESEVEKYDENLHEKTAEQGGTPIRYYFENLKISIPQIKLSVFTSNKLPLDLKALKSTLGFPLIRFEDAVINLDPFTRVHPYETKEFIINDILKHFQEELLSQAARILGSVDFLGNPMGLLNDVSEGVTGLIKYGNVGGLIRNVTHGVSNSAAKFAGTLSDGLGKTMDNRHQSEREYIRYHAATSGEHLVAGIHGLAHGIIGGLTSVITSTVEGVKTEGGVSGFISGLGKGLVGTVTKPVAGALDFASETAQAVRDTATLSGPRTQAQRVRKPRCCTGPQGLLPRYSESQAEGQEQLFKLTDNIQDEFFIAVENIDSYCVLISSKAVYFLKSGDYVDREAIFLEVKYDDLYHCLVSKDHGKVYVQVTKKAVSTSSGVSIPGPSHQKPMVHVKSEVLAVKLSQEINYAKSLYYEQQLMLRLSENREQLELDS
UniProt Q9BV38: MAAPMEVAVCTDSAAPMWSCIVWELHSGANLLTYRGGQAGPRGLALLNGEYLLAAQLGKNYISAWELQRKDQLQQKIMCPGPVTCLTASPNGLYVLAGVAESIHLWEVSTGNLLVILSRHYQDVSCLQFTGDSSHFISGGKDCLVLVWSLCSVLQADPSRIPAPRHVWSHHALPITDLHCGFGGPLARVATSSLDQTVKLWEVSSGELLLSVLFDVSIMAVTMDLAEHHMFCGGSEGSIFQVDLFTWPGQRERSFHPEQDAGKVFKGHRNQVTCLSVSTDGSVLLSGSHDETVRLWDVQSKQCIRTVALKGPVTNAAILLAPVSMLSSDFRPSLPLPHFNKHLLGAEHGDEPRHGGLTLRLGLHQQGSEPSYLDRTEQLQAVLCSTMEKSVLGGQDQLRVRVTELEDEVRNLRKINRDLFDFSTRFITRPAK
UniProt O95785: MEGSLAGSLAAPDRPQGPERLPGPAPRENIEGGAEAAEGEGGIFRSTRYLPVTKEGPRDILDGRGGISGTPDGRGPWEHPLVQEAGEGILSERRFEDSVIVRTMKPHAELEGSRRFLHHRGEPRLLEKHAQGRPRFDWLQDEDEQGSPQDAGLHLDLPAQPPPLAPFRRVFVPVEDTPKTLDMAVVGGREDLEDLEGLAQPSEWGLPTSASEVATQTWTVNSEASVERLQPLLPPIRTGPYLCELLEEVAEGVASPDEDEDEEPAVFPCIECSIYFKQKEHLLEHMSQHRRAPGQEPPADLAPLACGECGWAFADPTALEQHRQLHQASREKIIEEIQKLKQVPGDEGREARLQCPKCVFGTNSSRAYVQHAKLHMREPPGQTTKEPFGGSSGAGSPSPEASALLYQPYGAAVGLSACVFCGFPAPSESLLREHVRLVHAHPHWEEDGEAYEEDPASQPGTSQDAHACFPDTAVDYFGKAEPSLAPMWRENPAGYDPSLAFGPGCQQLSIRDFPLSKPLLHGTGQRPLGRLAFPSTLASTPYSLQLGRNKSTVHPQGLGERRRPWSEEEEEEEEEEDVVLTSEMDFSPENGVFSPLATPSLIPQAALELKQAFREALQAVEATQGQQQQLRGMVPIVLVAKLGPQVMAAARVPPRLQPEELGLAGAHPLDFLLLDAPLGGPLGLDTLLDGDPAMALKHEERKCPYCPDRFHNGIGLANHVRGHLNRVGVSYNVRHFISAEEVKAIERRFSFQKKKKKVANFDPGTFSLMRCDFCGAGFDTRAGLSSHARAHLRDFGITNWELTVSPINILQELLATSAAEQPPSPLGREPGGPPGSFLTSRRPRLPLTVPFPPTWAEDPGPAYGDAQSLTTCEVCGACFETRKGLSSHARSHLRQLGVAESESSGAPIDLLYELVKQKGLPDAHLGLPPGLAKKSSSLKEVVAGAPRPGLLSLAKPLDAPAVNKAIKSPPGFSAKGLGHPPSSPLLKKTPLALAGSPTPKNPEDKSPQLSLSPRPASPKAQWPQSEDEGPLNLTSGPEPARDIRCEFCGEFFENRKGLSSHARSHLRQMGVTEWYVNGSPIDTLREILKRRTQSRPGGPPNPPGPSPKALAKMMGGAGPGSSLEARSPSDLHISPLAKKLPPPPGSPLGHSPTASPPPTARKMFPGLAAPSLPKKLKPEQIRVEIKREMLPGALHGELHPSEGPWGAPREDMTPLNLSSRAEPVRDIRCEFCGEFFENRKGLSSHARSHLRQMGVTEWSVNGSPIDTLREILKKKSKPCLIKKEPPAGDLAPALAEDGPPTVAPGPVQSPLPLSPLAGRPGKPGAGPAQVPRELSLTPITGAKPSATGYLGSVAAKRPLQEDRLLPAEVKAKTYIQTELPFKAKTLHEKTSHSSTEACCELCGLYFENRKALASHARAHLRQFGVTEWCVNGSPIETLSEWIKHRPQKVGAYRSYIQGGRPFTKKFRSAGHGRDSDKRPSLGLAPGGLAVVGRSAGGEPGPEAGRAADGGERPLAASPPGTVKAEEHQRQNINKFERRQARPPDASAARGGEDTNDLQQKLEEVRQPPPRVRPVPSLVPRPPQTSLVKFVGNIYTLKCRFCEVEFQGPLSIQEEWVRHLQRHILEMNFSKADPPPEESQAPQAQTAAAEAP

pictilisib = compound: CS(=O)(=O)N1CCN(Cc2cc3nc(-c4cccc5[nH]ncc45)nc(N4CCOCC4)c3s2)CC1 [pictilisib]
Summary of the method: as §1

crizotinib = compound: C[C@@H](Oc1cc(-c2cnn(C3CCNCC3)c2)cnc1N)c1c(Cl)ccc(F)c1Cl [crizotinib]
Summary of the method: as §1

[1] = compound: C[C@H](C1=CC=C(C=C1)C(=O)NC2=C3C=CNC3=NC=C2)N
Summary of the method: as §1

duvelisib = compound: C[C@H](Nc1ncnc2nc[nH]c12)c1cc2cccc(Cl)c2c(=O)n1-c1ccccc1 [duvelisib]
Summary of the method: as §1

gandotinib = compound: Cc1cc(Nc2cc(CN3CCOCC3)c3nc(C)c(Cc4ccc(Cl)cc4F)n3n2)n[nH]1 [gandotinib]
Summary of the method: as §1

tozasertib = compound: Cc1cc(Nc2cc(N3CCN(C)CC3)nc(Sc3ccc(NC(=O)C4CC4)cc3)n2)n[nH]1 [tozasertib]
Summary of the method: as §1

doramapimod = compound: Cc1ccc(-n2nc(C(C)(C)C)cc2NC(=O)Nc2ccc(OCCN3CCOCC3)c3ccccc23)cc1 [doramapimod]
Summary of the method: as §1

bafetinib = compound: Cc1ccc(NC(=O)c2ccc(CN3CC[C@H](N(C)C)C3)c(C(F)(F)F)c2)cc1Nc1nccc(-c2cncnc2)n1 [bafetinib]
Summary of the method: as §1

[2] = compound: Cc1cccc(CC(=O)N2CCc3c2ccc(-c2cn(C)c4ncnc(N)c24)c3F)n1
Summary of the method: as §1

nilotinib = compound: Cc1cn(-c2cc(NC(=O)c3ccc(C)c(Nc4nccc(-c5cccnc5)n4)c3)cc(C(F)(F)F)c2)cn1 [nilotinib]
Summary of the method: as §1

[3] = compound: Cc1nc(Nc2n[nH]c3c2CN(C(=O)N[C@H](CN(C)C)c2ccccc2)C3(C)C)c2sccc2n1
Summary of the method: as §1

dasatinib = compound: Cc1nc(Nc2ncc(C(=O)Nc3c(C)cccc3Cl)s2)cc(N2CCN(CCO)CC2)n1 [dasatinib]
Summary of the method: as §1

[4] = compound: Cc1ncc(-c2ccnc(Nc3ccc(S(C)(=O)=O)cc3)n2)n1C(C)C
Summary of the method: as §1

[5] = compound: Cn1cc(-c2ccc3c(c2)CCN3C(=O)Cc2cccc(C(F)(F)F)c2)c2c(N)ncnc21
Summary of the method: as §1

quisinostat = compound: Cn1cc(CNCC2CCN(c3ncc(C(=O)NO)cn3)CC2)c2ccccc21 [quisinostat]
Summary of the method: as §1

tipifarnib = compound: Cn1cncc1[C@@](N)(c1ccc(Cl)cc1)c1ccc2c(c1)c(-c1cccc(Cl)c1)cc(=O)n2C [tipifarnib]
Summary of the method: as §1

[6] = compound: NC(=O)Nc1cc(-c2cccc(F)c2)sc1C(=O)N[C@H]1CCCNC1
Summary of the method: as §1

[7] = compound: NC(=O)c1cnc(N[C@@H]2CCCC[C@@H]2N)nc1Nc1cccc(-n2nccn2)c1
Summary of the method: as §1

[8] = compound: NC1(c2ccc(-c3nc4ccn5c(=O)[nH]nc5c4cc3-c3ccccc3)cc2)CCC1
Summary of the method: as §1

Measured: log2 fold change

VPS13A (UniProt Q96RL7)
inactive: lapatinib -0.001 | pictilisib 0.029 | crizotinib -0.026 | [1] 0.004 | duvelisib 0.036 | gandotinib -0.043 | tozasertib 0.056 | doramapimod -0.087 | bafetinib -0.044 | [2] 0.12 | nilotinib 0.091 | [3] -0.015 | dasatinib -0.016 | [4] -0.045 | [5] -0.074 | quisinostat 0.01 | tipifarnib -0.086 | [6] 0.008 | [7] -0.036 | [8] -0.078

WIPI1 (UniProt Q5MNZ9)
inactive: lapatinib -0.021 | pictilisib -0.003 | crizotinib 0.058 | [1] -0.013 | duvelisib -0.014 | gandotinib 0.017 | tozasertib 0.039 | doramapimod -0.013 | bafetinib -0.038 | [2] -0.038 | nilotinib 0.011 | [3] -0.198 | dasatinib 0.06 | [5] -0.028 | quisinostat 0.013 | tipifarnib 0.003 | [6] -0.011 | [7] 0.009 | [8] 0.011
active: [4] 0.314

VPS35 (UniProt Q96QK1)
inactive: lapatinib -0.004 | pictilisib -0.017 | crizotinib -0.038 | [1] 0.018 | duvelisib -0.023 | gandotinib -0.03 | tozasertib -0.02 | doramapimod 0.027 | bafetinib 0.019 | [2] -0.006 | nilotinib 0.013 | [3] 0.004 | dasatinib -0.024 | [4] 0.025 | [5] -0.008 | quisinostat 0.002 | tipifarnib 0.003 | [6] -0.008 | [7] 0.015 | [8] -0.022

WDR89 (UniProt Q96FK6)
inactive: lapatinib -0.015 | pictilisib -0.045 | crizotinib -0.003 | [1] -0.053 | duvelisib 0.082 | gandotinib 0.024 | tozasertib 0.077 | doramapimod 0.024 | bafetinib -0.062 | [2] 0.073 | nilotinib -0.073 | [3] 0.075 | dasatinib -0.032 | [4] 0.062 | [5] 0.026 | quisinostat -0.003 | tipifarnib 0.033 | [6] 0.021 | [7] -0.026 | [8] -0.087

WBP11 (UniProt Q9Y2W2)
inactive: lapatinib 0.03 | pictilisib 0.001 | crizotinib 0.01 | [1] 0.021 | duvelisib 0.012 | gandotinib 0.087 | tozasertib 0.021 | doramapimod 0.063 | bafetinib -0.01 | [2] -0.016 | nilotinib -0.008 | [3] -0.012 | dasatinib 0.048 | [4] 0.024 | [5] 0.002 | quisinostat -0.019 | tipifarnib -0.008 | [6] 0.012 | [7] -0.014 | [8] 0.005

VPS13D (UniProt Q5THJ4)
inactive: lapatinib -0.071 | pictilisib 0.002 | crizotinib -0.062 | [1] -0.039 | duvelisib -0.028 | gandotinib -0.115 | tozasertib 0.054 | doramapimod 0.103 | bafetinib 0.01 | [2] 0.157 | nilotinib -0.03 | [3] 0.017 | dasatinib -0.12 | [4] -0.052 | [5] 0.032 | quisinostat -0.149 | tipifarnib -0.175 | [6] 0.044 | [7] -0.009 | [8] -0.012

WRNIP1 (UniProt Q96S55)
inactive: lapatinib -0.021 | pictilisib -0.043 | crizotinib 0 | [1] 0.054 | duvelisib 0.012 | gandotinib -0.047 | tozasertib 0.022 | doramapimod 0.001 | bafetinib -0.043 | [2] 0.045 | nilotinib -0.008 | [3] 0.002 | dasatinib -0.018 | [4] -0.05 | [5] 0.066 | quisinostat -0.035 | tipifarnib -0.02 | [6] 0.053 | [7] -0.008 | [8] -0.001

WDR1 (UniProt O75083)
inactive: lapatinib -0.013 | pictilisib -0.016 | crizotinib 0.011 | [1] 0.08 | duvelisib -0.006 | gandotinib -0.065 | tozasertib -0.015 | doramapimod 0.007 | bafetinib 0.025 | [2] -0.096 | nilotinib -0.003 | [3] -0.007 | dasatinib -0.002 | [4] -0.007 | [5] 0.017 | quisinostat 0.055 | tipifarnib 0.025 | [6] -0.015 | [7] -0.01 | [8] 0.011

VPS37C (UniProt A5D8V6)
inactive: lapatinib 0.022 | pictilisib -0.04 | crizotinib 0.006 | [1] 0.014 | duvelisib 0.004 | gandotinib -0.113 | tozasertib 0.098 | doramapimod -0.026 | bafetinib -0.073 | [2] 0.021 | nilotinib -0.011 | [3] 0.088 | dasatinib -0.091 | [4] -0.018 | [5] -0.064 | quisinostat 0.027 | tipifarnib 0.003 | [6] -0.01 | [7] 0.02 | [8] 0.067

WASF1 (UniProt Q92558)
inactive: lapatinib 0.017 | pictilisib -0.007 | crizotinib -0.049 | [1] -0.099 | duvelisib 0.048 | gandotinib 0.019 | tozasertib 0.063 | doramapimod 0.028 | bafetinib -0.084 | [2] 0.08 | nilotinib -0.107 | [3] -0.029 | dasatinib -0.012 | [4] 0.104 | [5] 0.035 | quisinostat -0.032 | tipifarnib 0.031 | [6] -0.003 | [7] 0.056 | [8] 0.005

WDR82 (UniProt Q6UXN9)
inactive: lapatinib -0.027 | pictilisib -0.009 | crizotinib 0.017 | [1] -0.017 | duvelisib 0.005 | gandotinib -0.03 | tozasertib -0.018 | doramapimod 0.018 | bafetinib -0.023 | [2] -0.016 | nilotinib 0.031 | [3] -0.006 | dasatinib 0.007 | [4] 0.024 | [5] 0.011 | quisinostat 0.016 | tipifarnib -0.025 | [6] -0.02 | [7] -0.001 | [8] 0.035

XPA (UniProt P23025)
inactive: lapatinib -0.079 | pictilisib -0.091 | crizotinib -0.043 | [1] -0.039 | duvelisib 0.08 | gandotinib 0.014 | tozasertib -0.03 | doramapimod 0.013 | bafetinib -0.002 | [2] 0.035 | nilotinib 0.021 | [3] -0.04 | dasatinib -0.067 | [4] 0.106 | [5] -0.035 | quisinostat 0.029 | tipifarnib -0.052 | [6] -0.026 | [7] 0.016 | [8] -0.005

WASHC2C (UniProt Q9Y4E1)
inactive: lapatinib -0.01 | pictilisib -0.026 | crizotinib -0.05 | [1] -0.081 | duvelisib 0.011 | gandotinib 0.128 | tozasertib 0.046 | doramapimod 0.027 | bafetinib 0.03 | [2] 0.126 | nilotinib -0.039 | [3] -0.044 | dasatinib -0.009 | [4] 0.142 | [5] -0.045 | quisinostat -0.068 | tipifarnib 0.049 | [6] 0.063 | [7] -0.033 | [8] 0.01

WDR81 (UniProt Q562E7)
inactive: lapatinib -0.009 | pictilisib -0.11 | crizotinib -0.005 | [1] 0.019 | duvelisib -0.071 | gandotinib -0.05 | tozasertib -0.085 | doramapimod 0.022 | bafetinib -0.006 | [2] 0.043 | nilotinib 0 | [3] 0.024 | dasatinib -0.028 | [4] -0.007 | [5] 0.008 | quisinostat 0.003 | tipifarnib -0.015 | [6] 0.051 | [7] -0.013 | [8] 0.002

WDR18 (UniProt Q9BV38)
inactive: lapatinib -0.018 | pictilisib -0.018 | crizotinib -0.015 | [1] -0.046 | duvelisib -0.054 | gandotinib 0.083 | tozasertib 0.024 | doramapimod 0.041 | bafetinib -0.047 | [2] 0.012 | nilotinib -0.012 | [3] 0.063 | dasatinib 0.044 | [4] 0.04 | [5] 0.002 | quisinostat -0.015 | tipifarnib -0.028 | [6] 0.004 | [7] 0.022 | [8] 0.047

WIZ isoform 3 (UniProt O95785)
inactive: lapatinib 0.001 | pictilisib -0.009 | crizotinib 0.018 | [1] -0.061 | duvelisib 0.001 | gandotinib 0.003 | tozasertib 0.038 | doramapimod -0.003 | bafetinib -0.042 | [2] 0.003 | nilotinib -0.015 | [3] -0.078 | dasatinib 0.013 | [4] 0.002 | [5] -0.007 | quisinostat 0.002 | tipifarnib 0.004 | [6] 0.022 | [7] -0.008 | [8] 0.022
